Results are given in words; binding and its absence hold for the method and conditions named. Binding seen in cells or lysates may run through a third protein. Some binding calls cover weakened binding; strength is not graded here.
Target: E. chaffeensis TRP120 (native, in infected THP-1 cells) (E. chaffeensis (Arkansas strain)) (UniProt Q2GI62)
Assay: co-IP; Pierce Crosslink IP Kit; lysate of THP-1 cells infected with E. chaffeensis (MOI 100, 24 h); IP with TRP120-I1 or PTCH2 antibody (reverse), blot for TRP120 or PTCH2; normal rabbit IgG as control

Sequences of proteins named here, by UniProt entry; tags and fusion partners are left off.
UniProt Q2GI62: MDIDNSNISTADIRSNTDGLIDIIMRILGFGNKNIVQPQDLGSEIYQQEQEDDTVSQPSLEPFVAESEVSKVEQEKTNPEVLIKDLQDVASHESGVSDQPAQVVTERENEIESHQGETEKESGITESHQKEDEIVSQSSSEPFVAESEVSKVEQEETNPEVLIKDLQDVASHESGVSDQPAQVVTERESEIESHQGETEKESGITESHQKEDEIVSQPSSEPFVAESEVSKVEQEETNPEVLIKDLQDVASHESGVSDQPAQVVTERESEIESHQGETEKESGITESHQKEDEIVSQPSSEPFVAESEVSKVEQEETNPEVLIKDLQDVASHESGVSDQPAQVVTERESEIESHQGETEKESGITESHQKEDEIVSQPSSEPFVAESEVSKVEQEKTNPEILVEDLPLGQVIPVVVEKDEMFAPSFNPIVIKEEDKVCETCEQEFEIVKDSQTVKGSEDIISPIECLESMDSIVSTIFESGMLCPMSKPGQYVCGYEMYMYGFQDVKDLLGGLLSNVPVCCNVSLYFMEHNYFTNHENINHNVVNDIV

B1: Patched-2 (PTCH2), endogenous in THP-1 cells (receptor, UniProt Q9Y6C5 1-1203)
chain: MTRSPPLRELPPSYTPPARTAAPQILAGSLKAPLWLRAYFQGLLFSLGCGIQRHCGKVLFLGLLAFGALALGLRMAIIETNLEQLWVEVGSRVSQELHYTKEKLGEEAAYTSQMLIQTARQEGENILTPEALGLHLQAALTASKVQVSLYGKSWDLNKICYKSGVPLIENGMIERMIEKLFPCVILTPLDCFWEGAKLQGGSAYLPGRPDIQWTNLDPEQLLEELGPFASLEGFRELLDKAQVGQAYVGRPCLHPDDLHCPPSAPNHHSRQAPNVAHELSGGCHGFSHKFMHWQEELLLGGMARDPQGELLRAEALQSTFLLMSPRQLYEHFRGDYQTHDIGWSEEQASTVLQAWQRRFVQLAQEALPENASQQIHAFSSTTLDDILHAFSEVSAARVVGGYLLMLAYACVTMLRWDCAQSQGSVGLAGVLLVALAVASGLGLCALLGITFNAATTQVLPFLALGIGVDDVFLLAHAFTEALPGTPLQERMGECLQRTGTSVVLTSINNMAAFLMAALVPIPALRAFSLQAAIVVGCTFVAVMLVFPAILSLDLRRRHCQRLDVLCCFSSPCSAQVIQILPQELGDGTVPVGIAHLTATVQAFTHCEASSQHVVTILPPQAHLVPPPSDPLGSELFSPGGSTRDLLGQEEETRQKAACKSLPCARWNLAHFARYQFAPLLLQSHAKAIVLVLFGALLGLSLYGATLVQDGLALTDVVPRGTKEHAFLSAQLRYFSLYEVALVTQGGFDYAHSQRALFDLHQRFSSLKAVLPPPATQAPRTWLHYYRNWLQGIQAAFDQDWASGRITRHSYRNGSEDGALAYKLLIQTGDAQEPLDFSQLTTRKLVDREGLIPPELFYMGLTVWVSSDPLGLAASQANFYPPPPEWLHDKYDTTGENLRIPPAQPLEFAQFPFLLRGLQKTADFVEAIEGARAACAEAGQAGVHAYPSGSPFLFWEQYLGLRRCFLLAVCILLVCTFLVCALLLLNPWTAGLIVLVLAMMTVELFGIMGFLGIKLSAIPVVILVASVGIGVEFTVHVALGFLTTQGSRNLRAAHALEHTFAPVTDGAISTLLGLLMLAGSHFDFIVRYFFAALTVLTLLGLLHGLVLLPVLLSILGPPPEVIQMYKESPEILSPPAPQGGGLRWGASSSLPQSFARVTTSMTVAIHPPPLPGAYIHPAPDEPPWSPAATSSGNLSSRGPGPATG
binding: binds
